# Screening data, single-dose tests

Source: ChEMBL document CHEMBL3988442, “University of Dundee, Small-Polar-MMV Screening Library” (2021).

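Whole-parasite assay of Trypanosoma brucei over 72 hours; the read-out is not stated. Concentration: 30 µM. Higher reads as stronger inhibition (inferred: compounds with an IC50 in retests scored well above the rest). Values scatter widely below zero; nearly all retest evidence comes from the higher of the two concentrations used. Size under these conditions: about 64,000 compounds, about 940 of them at 50% or above in at least one test.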

Results are given as percent effect.
How 0% and 100% were set is not recorded. Most values in the screen are low, and negative values occur.
This is an unselected part of the compounds tested.

CCC(O)CN(CC(=O)Nc1cc(C)no1)c1ccccc1 (stereo not given) gave 8.985%.
C1CCC(CNC2CCCN(Cc3noc(C4CC4)n3)C2)C1 (stereo not given) gave 26.01%.
Br.Cn1cc(CN2CCC(c3cc(COc4cccc(Cl)c4)[nH]n3)C2)cn1 (stereo not given) gave 49.27%.
NC(=O)c1cc(NC(=O)N2CCCCCC2)ccc1F gave -43.72%.
O=C(CCCc1nnc(-c2ccccc2)o1)N1CCN(CCO)CC1 gave -40.88%.
O=C(O)C(F)(F)F.[H][C@]12CCC[C@@]1(COc1cccnc1)CN(C(=O)C1CCOCC1)C2 gave -14.97%.
NC(=O)C1CCCN(C(=O)c2cccc(OCc3cscn3)c2)C1 (stereo not given) gave 2.067%.
COC(=O)CC(c1ccccc1)c1oc(C)cc(=O)c1O (stereo not given) gave -1.256%.
CSc1ccc(CNC(c2ccccc2)c2nccn2C)cc1 (stereo not given) gave 15.06%.
Cn1c(C2CC2)nc2c1CCN(CCOc1ccccc1C#N)C2 gave 73.03%.
CNC(=O)CCc1cc(C)nc(C2CCN(c3cnccn3)CC2)c1 gave -1.997%.
O=C(O)C(F)(F)F.O=C(c1ccc[nH]1)N1CC[C@@H](OCC2CC2)[C@@H]1Cc1cccnc1 gave 4.479%.
Cn1ccnc1CN1CCC2(CC1)CN(c1ccccn1)CCO2.O=C(O)C(F)(F)F.O=C(O)C(F)(F)F gave -16.86%.
Cc1nn(C)c(C)c1C(=O)N1CCN(c2ccncc2Cl)CC1 gave -19%.
Cc1nc(CN2CC(Cc3ccccc3)CC2=O)no1 (stereo not given) gave -19.85%.
OC(CN(Cc1ccccc1)Cc1cccnc1)c1cccs1 (stereo not given) gave -21.69%.
[H][C@@]12CCN[C@]1([H])CN(S(=O)(=O)c1ccccc1)C2 gave -23.42%.
[H][C@]12CC[C@]([H])(CN(C3Cc4ccccc4C3)C1)N(C(=O)OCCOC)C2 gave -1.161%.
Cc1ncsc1CCNC(=O)Cn1nc(C)n(Cc2ccccc2)c1=O gave -16.08%.
CCCOCCN1CCc2[nH]c(-c3ccc(OC)cc3)nc2C1 gave -117%.
Cc1ccc(CNC(C)c2ccc3[nH]c(=O)[nH]c3c2)s1 (stereo not given) gave 9.775%.
Cc1cc(-c2nn3c(C4CCC4)nnc3s2)on1 gave 1.314%.
CCCc1noc(C(C)S(=O)(=O)Cc2nc(C3CC3)no2)n1 (stereo not given) gave -45.03%.
CNc1cccc(C2CCCN(C(C)=O)C2)n1 (stereo not given) gave -24.3%.
Cc1ccc(CN2CCOCC2)cc1NC(=O)c1ccsc1 gave 0.8602%.
CN(C(=O)CCc1cccs1)C1CCCN(C2Cc3ccccc3C2)C1 (stereo not given) gave -11.81%.
Cc1nc(Cn2c(=O)cnc3ccccc32)n(C)n1 gave -3.785%.
CN(Cc1cn2c(n1)CN(Cc1ccc(F)cc1)CC2)Cc1ccco1.O=C(O)C(F)(F)F.O=C(O)C(F)(F)F gave -20.71%.
CC(c1nccs1)n1cc(-c2cc(CN3CCCCC3)cs2)nn1 (stereo not given) gave -12.01%.
O=C(O)C(F)(F)F.[H][C@@]12CCN(Cc3ccc(C)cc3)C[C@]1([H])O[C@@H](C(=O)N(C)C)C2 gave 45.02%.
CC(CO)NC(=O)Nc1ccc(COC2CCCC2)cc1 (stereo not given) gave 13.16%.
Cc1cnc(CNC(=O)C2CCOc3ccccc3C2)cn1 (stereo not given) gave -1.808%.
CCc1cc(N[C@H]2CC[C@H](O)CC2)n2nc(C)c(C)c2n1 gave 26.31%.
CC(C)NC1CC2(CCNCC2)c2cc(F)ccc21.Cl.Cl (stereo not given) gave -28.8%.
Cc1ccnc(CC(C)N(C)c2cc(CCN)nc(C)n2)c1 (stereo not given) gave 23.16%.
Cn1cc(CNCC2(O)CCCCC2)c(-c2cccnc2)n1 gave 8.897%.
O=C(O)C(F)(F)F.[H][C@]12CCN(c3ncccn3)[C@@]1([H])CC[C@H](COCC(=O)N1CCCC1)O2 gave 52.31%.
O=C(O)C(F)(F)F.O[C@@H]1CCN(CC2CCOC2)[C@H]1Cc1ccccc1 (stereo not given in full) gave -67.78%.
COc1c(CNCCc2c[nH]c3ccccc23)c(C)nn1C gave -39.31%.
CS(=O)(=O)NCc1cncc2c1CCN(C(=O)c1cccnc1)C2.Cl.Cl gave -7.257%.
Cc1nc(C2CCN(C(=O)c3ccnn3C)CC2)c2sccn12 gave 7.618%.
CC[C@@H](CO)Nc1nccc(-c2cnc3sc(C)cn3c2=O)n1 gave -12.98%.
O=C(O)C(F)(F)F.[H][C@]12CCN(c3ccc(C)nn3)C[C@@]1([H])CN(Cc1cccc(C)n1)C2 gave -5.378%.
Cn1cnnc1CN1CCC2(CCCN(C3CCCCC3)C2=O)C1 (stereo not given) gave -17.62%.
CSC(C)C(=O)NS(=O)(=O)CCc1ccccc1 (stereo not given) gave -41.63%.
NC(=O)CCCNC(=O)COc1ccccc1C(F)(F)F gave -3.728%.
COCCN1CCc2cc(C(=O)NC(C)C)c(NCC(C)C)nc2CC1.O=C(O)C(F)(F)F.O=C(O)C(F)(F)F gave -90.8%.
CCO[C@H]1CN(C)C[C@@H]1NC(=O)c1cc(C)nc2c(C)c(C)ccc12 gave 45.57%.

Once more, the final 3:

Result for NC(=O)CCCNC(=O)COc1ccccc1C(F)(F)F was -3.728%.
Result for COCCN1CCc2cc(C(=O)NC(C)C)c(NCC(C)C)nc2CC1.O=C(O)C(F)(F)F.O=C(O)C(F)(F)F was -90.8%.
Result for CCO[C@H]1CN(C)C[C@@H]1NC(=O)c1cc(C)nc2c(C)c(C)ccc12 was 45.57%.